The results in this text go back to patent US20250011403A1.

For assay [1], the target named is T1, recombinant 6His-Sp17 protein (human) (UniProt Q15506).
T1 sequence (looked up): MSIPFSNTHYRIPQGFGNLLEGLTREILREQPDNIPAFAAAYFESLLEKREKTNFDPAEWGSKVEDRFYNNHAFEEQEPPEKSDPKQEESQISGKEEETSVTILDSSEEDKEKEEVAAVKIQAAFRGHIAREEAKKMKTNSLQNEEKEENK
Briefly: western blot.

Assay [2] concerns the target T1, recombinant 6His-Sp17 protein (human). Briefly: western blot of Sp17 protein on an SDS-PAGE gel, detected with chAB2.
Assay [3] shares this target. Briefly: surface plasmon resonance (Biacore T200), 6His-Sp17 at six concentrations over chAB2.
Assay [4] shares this target. Put plainly: western blot of Sp17 protein.
The target is the same in assay [5]. Put plainly: western blot of Sp17 protein and a tumor cell lysate.
The target is the same in assay [6]. Put plainly: ELISA of phage display clones.

These are yes or no findings as the source states them, for the method shown. Some binding calls cover weakened binding; strength is not graded here. Sequences can lack the tags named with a protein.

B1: mouse-human chimeric anti-Sp17 IgG2a/kappa monoclonal antibody chAB2 (antibody, V domains shown)
VH: QVQLQQSGAEVKKPGSSVKVSCKASGGTFSSYAISWVRQAPGQGLEWMGRIIPILGIANYAQKFQGRVTITADKSTSTAYMELSSLRSEDTAVYYCARPSEEVVAAYGAFDIWGQGTTVTVSS
VL: EIVLTQSPLSLPVRPGEPASISCRASQSLLRSDGFNYLDWYLQKPGQSPQLLVYLGSNRASGVPDRFSGSGSGTDFTLKISRVEAEDVGVYYCMQAVQTPYIFGQGTKLEIK
Take B1: the binding result in assay [1], in assay [2], in assay [3] and in assay [4] was “binds” in each case.

B2: human anti-Sp17 IgG4/kappa monoclonal antibody SP17-AB2 (antibody, V domains shown)
VH: B1 VH
VL: EIVLTQSPLSLPVRPGEPASISCRASQSLLRSDGFNYLDWYLQKPGQSPQLLVYLGSNRASGVPDRFSGSGSGTDFTLKISRVEAEDVGVYYCMQAVQTPYIFGQGTKLEIKR
Turning to B2, the binding entry in assay [5] and in assay [1] was “binds” in each case.

B3: anti-Sp17 Fab clone identified by bio-panning the human Fab phage display library (Fab, V domains shown)
VH: B1 VH
VL: B1 VL
On to B3, for which the binding result in assay [6] is “binds”.
